{"source": "patent US20230120142A1", "about": "“COMPOSITIONS AND METHODS FOR THE TREATMENT OF INTRACELLULAR BACTERIAL INFECTIONS” (Endolytix Technology, Inc., priority 2020, published 2023)", "tested_on": "M. abscessus cells", "experiment": "Cell growth assay of ABIα plus antibiotic, Fractional Inhibitory Concentration (FIC) index", "assay_type": "cell-based, Mycobacterium abscessus", "conditions": "antibiotic in combination with ABIα cocktail; FIG. 5", "note": "At least one compound was matched to its structure with a doubt left.", "data": [{"smiles": "COc1c(N2C[C@@H]3CCCN[C@@H]3C2)c(F)cc2c(=O)c(C(=O)O)cn(C3CC3)c12", "note": "[moxifloxacin]", "values": [{"measurement": "interaction by Fractional Inhibitory Concentration (FIC) index on attenuation of M. abscessus growth", "value": "synergistic effects"}]}]}
